# Experimental data: the supplement of paper PMC11438910
# Some of the results follow. Most of these values are background signal.
# Experiments:
# Assay in all cases: fluorescence intensity of antibody binding to polysaccharide-coupled beads; higher = stronger binding
# [1] = target: pneumococcal polysaccharide Pn18B
# Description: (§1)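 Recombinant rhesus-murine chimeric IgG1 antibodies were tested against antigen-coupled MagPlex beads in a 96-plex Luminex direct immunoassay (dLIA). The beads carried pneumococcal capsular polysaccharides of 93 serotypes plus C-polysaccharides. Antibody was added at 0.1–12,500 ng/mL for 1 h, then PE anti-mouse IgG, and net MFI was read on a Bio-Plex 3D. Only the rhesus variable regions are printed; constant regions are murine IgG1/kappa/lambda, and the signal peptide is MGWSCIILFLVATATGVHS.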
# [2] = target: pneumococcal polysaccharide Pn18C
# Description: as §1
# [3] = target: pneumococcal polysaccharide Pn18F
# Description: as §1
# [4] = target: pneumococcal polysaccharide Pn19A
# Description: as §1
# [5] = target: pneumococcal polysaccharide Pn19B
# Description: as §1
# [6] = target: pneumococcal polysaccharide Pn19C
# Description: as §1
# [7] = target: pneumococcal polysaccharide Pn19F
# Description: as §1
# [8] = target: pneumococcal polysaccharide Pn2
# Description: as §1
# [9] = target: pneumococcal polysaccharide Pn20A
# Description: as §1
# [10] = target: pneumococcal polysaccharide Pn20B
# Description: as §1
# [11] = target: pneumococcal polysaccharide Pn21
# Description: as §1
# [12] = target: pneumococcal polysaccharide Pn22A
# Description: as §1
# [13] = target: pneumococcal polysaccharide Pn22F
# Description: as §1
# [14] = target: pneumococcal polysaccharide Pn23A
# Description: as §1
# [15] = target: pneumococcal polysaccharide Pn23B
# Description: as §1
# [16] = target: pneumococcal polysaccharide Pn23F
# Description: as §1
# [17] = target: pneumococcal polysaccharide Pn24A
# Description: as §1
# [18] = target: pneumococcal polysaccharide Pn24B
# Description: as §1
# [19] = target: pneumococcal polysaccharide Pn24F
# Description: as §1
# [20] = target: pneumococcal polysaccharide Pn25A
# Description: as §1
# [21] = target: pneumococcal polysaccharide Pn25F
# Description: as §1
# [22] = target: pneumococcal polysaccharide Pn27
# Description: as §1
# [23] = target: pneumococcal polysaccharide Pn28A
# Description: as §1
# [24] = antibody concentration 2.8593 ng/mL
# [25] = antibody concentration 15.2894 ng/mL
# [26] = antibody concentration 81.7561 ng/mL
# [27] = antibody concentration 437.17 ng/mL
# [28] = antibody concentration 2337.65 ng/mL
# [29] = antibody concentration 12500 ng/mL
# [30] = antibody concentration 0.1 ng/mL
# [31] = antibody concentration 0.534724 ng/mL
binder,measurement,setting,value
4-127.3 (protein) chain 1: QVQLQESGPGLVKPSETLSLTCAVSGYSISSGYGWSWIRQPPGKGLEWIGYIGGSSGSTNYNPSLKSRVTVSKDTSKNQFSLKLSSVTAADTAVYYCARADYCTSTTCYGPNRFDVWGPGVLVTVSS chain 2: QAAPTQSPSVSGSAGQSVTISCTGSSSDIGYYNGVSWYQHHPGKAPKLMIYEVSKRPSGVSNRFSGSKSGNTASLTISGLQAADEADYFCSSYAGSGTYIFGAGTRLTVL,fluorescence intensity,[1]; [24],31.2 MFI
same,fluorescence intensity,[1]; [25],32 MFI
same,fluorescence intensity,[1]; [26],30.5 MFI
same,fluorescence intensity,[1]; [27],32.5 MFI
same,fluorescence intensity,[1]; [28],34.5 MFI
same,fluorescence intensity,[1]; [29],41.2 MFI
same,fluorescence intensity,[2]; [30],19.2 MFI
same,fluorescence intensity,[2]; [31],20 MFI
same,fluorescence intensity,[2]; [24],19.5 MFI
same,fluorescence intensity,[2]; [25],19 MFI
same,fluorescence intensity,[2]; [26],21 MFI
same,fluorescence intensity,[2]; [27],21.5 MFI
same,fluorescence intensity,[2]; [28],23.5 MFI
same,fluorescence intensity,[2]; [29],33.5 MFI
same,fluorescence intensity,[3]; [30],22 MFI
same,fluorescence intensity,[3]; [31],24.8 MFI
same,fluorescence intensity,[3]; [24],23.5 MFI
same,fluorescence intensity,[3]; [25],24.5 MFI
same,fluorescence intensity,[3]; [26],24.5 MFI
same,fluorescence intensity,[3]; [27],26 MFI
same,fluorescence intensity,[3]; [28],29.2 MFI
same,fluorescence intensity,[3]; [29],35 MFI
same,fluorescence intensity,[4]; [30],19.5 MFI
same,fluorescence intensity,[4]; [31],18.8 MFI
same,fluorescence intensity,[4]; [24],17.8 MFI
same,fluorescence intensity,[4]; [25],17.5 MFI
same,fluorescence intensity,[4]; [26],18.5 MFI
same,fluorescence intensity,[4]; [27],19.8 MFI
same,fluorescence intensity,[4]; [28],20.5 MFI
same,fluorescence intensity,[4]; [29],30 MFI
same,fluorescence intensity,[5]; [30],33.5 MFI
same,fluorescence intensity,[5]; [31],28 MFI
same,fluorescence intensity,[5]; [24],29.5 MFI
same,fluorescence intensity,[5]; [25],28.2 MFI
same,fluorescence intensity,[5]; [26],30 MFI
same,fluorescence intensity,[5]; [27],30 MFI
same,fluorescence intensity,[5]; [28],36.5 MFI
same,fluorescence intensity,[5]; [29],103 MFI
same,fluorescence intensity,[6]; [30],28.2 MFI
same,fluorescence intensity,[6]; [31],26.8 MFI
same,fluorescence intensity,[6]; [24],25.8 MFI
same,fluorescence intensity,[6]; [25],25.2 MFI
same,fluorescence intensity,[6]; [26],25.5 MFI
same,fluorescence intensity,[6]; [27],25.5 MFI
same,fluorescence intensity,[6]; [28],30.5 MFI
same,fluorescence intensity,[6]; [29],65.8 MFI
same,fluorescence intensity,[7]; [30],27 MFI
same,fluorescence intensity,[7]; [31],25.5 MFI
same,fluorescence intensity,[7]; [24],26.5 MFI
same,fluorescence intensity,[7]; [25],27.5 MFI
same,fluorescence intensity,[7]; [26],27 MFI
same,fluorescence intensity,[7]; [27],27 MFI
same,fluorescence intensity,[7]; [28],31 MFI
same,fluorescence intensity,[7]; [29],46.5 MFI
same,fluorescence intensity,[8]; [30],20.2 MFI
same,fluorescence intensity,[8]; [31],20.5 MFI
same,fluorescence intensity,[8]; [24],19.5 MFI
same,fluorescence intensity,[8]; [25],21 MFI
same,fluorescence intensity,[8]; [26],20 MFI
same,fluorescence intensity,[8]; [27],21 MFI
same,fluorescence intensity,[8]; [28],22.5 MFI
same,fluorescence intensity,[8]; [29],29 MFI
same,fluorescence intensity,[9]; [30],24.5 MFI
same,fluorescence intensity,[9]; [31],23.5 MFI
same,fluorescence intensity,[9]; [24],22.8 MFI
same,fluorescence intensity,[9]; [25],22.8 MFI
same,fluorescence intensity,[9]; [26],23.8 MFI
same,fluorescence intensity,[9]; [27],22.8 MFI
same,fluorescence intensity,[9]; [28],27.2 MFI
same,fluorescence intensity,[9]; [29],69.2 MFI
same,fluorescence intensity,[10]; [30],24 MFI
same,fluorescence intensity,[10]; [31],24 MFI
same,fluorescence intensity,[10]; [24],25.2 MFI
same,fluorescence intensity,[10]; [25],25.5 MFI
same,fluorescence intensity,[10]; [26],23.5 MFI
same,fluorescence intensity,[10]; [27],23.5 MFI
same,fluorescence intensity,[10]; [28],25.5 MFI
same,fluorescence intensity,[10]; [29],34 MFI
same,fluorescence intensity,[11]; [30],20.5 MFI
same,fluorescence intensity,[11]; [31],19.5 MFI
same,fluorescence intensity,[11]; [24],19.8 MFI
same,fluorescence intensity,[11]; [25],21.2 MFI
same,fluorescence intensity,[11]; [26],20.5 MFI
same,fluorescence intensity,[11]; [27],20 MFI
same,fluorescence intensity,[11]; [28],20.2 MFI
same,fluorescence intensity,[11]; [29],25.5 MFI
same,fluorescence intensity,[12]; [30],22 MFI
same,fluorescence intensity,[12]; [31],21 MFI
same,fluorescence intensity,[12]; [24],22.5 MFI
same,fluorescence intensity,[12]; [25],21.5 MFI
same,fluorescence intensity,[12]; [26],21.5 MFI
same,fluorescence intensity,[12]; [27],22.5 MFI
same,fluorescence intensity,[12]; [28],24.5 MFI
same,fluorescence intensity,[12]; [29],39.5 MFI
same,fluorescence intensity,[13]; [30],31 MFI
same,fluorescence intensity,[13]; [31],31 MFI
same,fluorescence intensity,[13]; [24],32.8 MFI
same,fluorescence intensity,[13]; [25],34 MFI
same,fluorescence intensity,[13]; [26],32.2 MFI
same,fluorescence intensity,[13]; [27],30.5 MFI
same,fluorescence intensity,[13]; [28],34.2 MFI
same,fluorescence intensity,[13]; [29],41.8 MFI
same,fluorescence intensity,[14]; [30],23 MFI
same,fluorescence intensity,[14]; [31],29 MFI
same,fluorescence intensity,[14]; [24],28.8 MFI
same,fluorescence intensity,[14]; [25],27 MFI
same,fluorescence intensity,[14]; [26],28.5 MFI
same,fluorescence intensity,[14]; [27],33 MFI
same,fluorescence intensity,[14]; [28],42 MFI
same,fluorescence intensity,[14]; [29],59.5 MFI
same,fluorescence intensity,[15]; [30],28.5 MFI
same,fluorescence intensity,[15]; [31],33 MFI
same,fluorescence intensity,[15]; [24],30 MFI
same,fluorescence intensity,[15]; [25],32.5 MFI
same,fluorescence intensity,[15]; [26],30 MFI
same,fluorescence intensity,[15]; [27],31 MFI
same,fluorescence intensity,[15]; [28],33 MFI
same,fluorescence intensity,[15]; [29],36.5 MFI
same,fluorescence intensity,[16]; [30],19 MFI
same,fluorescence intensity,[16]; [31],20 MFI
same,fluorescence intensity,[16]; [24],17.5 MFI
same,fluorescence intensity,[16]; [25],18 MFI
same,fluorescence intensity,[16]; [26],19.8 MFI
same,fluorescence intensity,[16]; [27],21 MFI
same,fluorescence intensity,[16]; [28],21 MFI
same,fluorescence intensity,[16]; [29],30 MFI
same,fluorescence intensity,[17]; [30],18.2 MFI
same,fluorescence intensity,[17]; [31],16.5 MFI
same,fluorescence intensity,[17]; [24],16.5 MFI
same,fluorescence intensity,[17]; [25],16 MFI
same,fluorescence intensity,[17]; [26],16.5 MFI
same,fluorescence intensity,[17]; [27],16 MFI
same,fluorescence intensity,[17]; [28],17 MFI
same,fluorescence intensity,[17]; [29],24 MFI
same,fluorescence intensity,[18]; [30],20.5 MFI
same,fluorescence intensity,[18]; [31],18.5 MFI
same,fluorescence intensity,[18]; [24],19 MFI
same,fluorescence intensity,[18]; [25],19 MFI
same,fluorescence intensity,[18]; [26],19.5 MFI
same,fluorescence intensity,[18]; [27],20.5 MFI
same,fluorescence intensity,[18]; [28],21.5 MFI
same,fluorescence intensity,[18]; [29],36.5 MFI
same,fluorescence intensity,[19]; [30],17.8 MFI
same,fluorescence intensity,[19]; [31],20.2 MFI
same,fluorescence intensity,[19]; [24],19.5 MFI
same,fluorescence intensity,[19]; [25],17.8 MFI
same,fluorescence intensity,[19]; [26],18.5 MFI
same,fluorescence intensity,[19]; [27],20.8 MFI
same,fluorescence intensity,[19]; [28],27.8 MFI
same,fluorescence intensity,[19]; [29],32 MFI
same,fluorescence intensity,[20]; [30],25.2 MFI
same,fluorescence intensity,[20]; [31],26 MFI
same,fluorescence intensity,[20]; [24],24 MFI
same,fluorescence intensity,[20]; [25],24 MFI
same,fluorescence intensity,[20]; [26],25.5 MFI
same,fluorescence intensity,[20]; [27],25.5 MFI
same,fluorescence intensity,[20]; [28],29 MFI
same,fluorescence intensity,[20]; [29],38 MFI
same,fluorescence intensity,[21]; [30],31.5 MFI
same,fluorescence intensity,[21]; [31],30.5 MFI
same,fluorescence intensity,[21]; [24],30.5 MFI
same,fluorescence intensity,[21]; [25],31.5 MFI
same,fluorescence intensity,[21]; [26],31.5 MFI
same,fluorescence intensity,[21]; [27],32 MFI
same,fluorescence intensity,[21]; [28],32 MFI
same,fluorescence intensity,[21]; [29],42 MFI
same,fluorescence intensity,[22]; [30],17.8 MFI
same,fluorescence intensity,[22]; [31],17.5 MFI
same,fluorescence intensity,[22]; [24],17.5 MFI
same,fluorescence intensity,[22]; [25],17.8 MFI
same,fluorescence intensity,[22]; [26],17.5 MFI
same,fluorescence intensity,[22]; [27],19.8 MFI
same,fluorescence intensity,[22]; [28],23.5 MFI
same,fluorescence intensity,[22]; [29],76.5 MFI
same,fluorescence intensity,[23]; [30],28.5 MFI
same,fluorescence intensity,[23]; [31],27.5 MFI
same,fluorescence intensity,[23]; [24],27 MFI
same,fluorescence intensity,[23]; [25],28.5 MFI
same,fluorescence intensity,[23]; [26],28.2 MFI
same,fluorescence intensity,[23]; [27],27 MFI
